PubChem BioAssay AID686943 – Drosophila RNAi Screening Center | 2013

Screen: 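Knockdowns that increase or decrease active ERK after insulin receptor stimulation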 (primary screen)
Cell system: Drosophila S2R+ haemocyte-like cells expressing YFP-tagged ERK (Rolled)
Reagent: long dsRNA against Drosophila genes
Treatment: insulin stimulation versus unstimulated cells; dose and duration not given
Measurement: 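Antibody staining for doubly phosphorylated ERK divided by ERK-YFP signal, as plate z-scores, in insulin-treated and untreated cells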
Scale: replicate 1, z-score of dpERK with insulin and replicate 2, z-score of dpERK with insulin: higher = more active ERK per ERK-YFP after insulin
The deposit covers about 23,000 reagents; below is an unselected part of those with a known target gene and a result. 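Extra replicates exist only for a retested subset of genes; insulin dose and duration not given; both raised and lowered dpERK matter.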 Reagents against one gene are numbered here. Not all columns of the deposit are shown. Not given: the amount of reagent, the time to read-out.

no.	Gene	reagent	replicate 1, z-score of dpERK with insulin	replicate 2, z-score of dpERK with insulin
1	CG5065 (GeneID 36860)	1	0.8	0.51
2	CG15878 (GeneID 38281)	1	-0.09	0.35
3	Cyp28a5 (GeneID 34817)	1	0.95	0.33
4	CG14810 (GeneID 31131)	1	1.24	3.61
5	CG14810 (GeneID 31131)	2	0.86	0.37
6	CG5515 (GeneID 42875)	1	0.32	-0.24
7	zen2 (GeneID 40827)	1	0.63	0.21
8	CG5921 (GeneID 31538)	1	0.01	-0.17
9	CG5921 (GeneID 31538)	2	-0.05	0
10	pim (GeneID 34404)	1	-1.71	-0.65
11	CG14422 (GeneID 31286)	1	0.42	2.93
12	Mdr49 (GeneID 36428)	1	0.52	1.14
13	ATPCL (GeneID 36760)	1	1.06	0.45
14	blo (GeneID 35866)	1	-0.16	0.04
15	CG34338 (GeneID 5740687)	1	-0.16	0.27
16	Nepl18 (GeneID 43410)	1	0.48	-0.09
17	Obp57a (GeneID 246670)	1	0.85	-0.01
18	bnb (GeneID 32872)	1	-0.45	-0.8
19	CG1092 (GeneID 40538)	1	-0.1	0.23
20	ato (GeneID 40975)	1	-1.05	-0.71
21	Snoo (GeneID 5740414)	1	0.21	-0.37
22	Snoo (GeneID 5740414)	2	-1.12	-1.61
23	Snoo (GeneID 5740414)	3	-0.74	0.05
24	Bulli (GeneID 38734)	1	0	-0.12
25	CG3526 (GeneID 31277)	1	1.72	0.48
26	CG3526 (GeneID 31277)	2	1.31	0.1
27	mRpL14 (GeneID 31222)	1	-0.22	-1.26
28	CG9890 (GeneID 37659)	1	0.28	0.97
29	cyc (GeneID 40162)	1	-0.06	0.9
30	chn (GeneID 36678)	1	-1.22	-0.11
31	fz2 (GeneID 40090)	1	-0.93	-0.04
32	fz2 (GeneID 40090)	2	-0.36	-0.4
33	fz2 (GeneID 40090)	3	0.7	-0.13
34	RnrL (GeneID 34392)	1	-1.12	-1.4
35	sna (GeneID 34908)	1	0.94	0.48
36	laza (GeneID 40468)	1	0.46	-0.21
37	lectin-29Ca (GeneID 53547)	1	0.1	-0.02
38	S (GeneID 33281)	1	-0.58	2.14
39	Taf11 (GeneID 34293)	1	0.62	0.82
40	CG14650 (GeneID 40566)	1	0.5	0.31
41	Pepck2 (GeneID 37130)	1	1	-1.02
42	brm (GeneID 39744)	1	-2.75	-2.17
43	pie (GeneID 44315)	1	-0.63	0.69
44	Fa2h (GeneID 35670)	1	0.06	0.02
45	Fa2h (GeneID 35670)	2	0.33	-0.17
46	Mrp4 (GeneID 41387)	1	1.03	-0.37
47	GIIIspla2 (GeneID 31747)	1	-0.25	-1.09
48	Ppat-Dpck (GeneID 38647)	1	-0.58	0.12
49	CkIIbeta (GeneID 32132)	1	-0.01	0.23
50	Lsd-1 (GeneID 42810)	1	0.42	-0.57
51	CG16813 (GeneID 34724)	1	0.63	-0.15
52	Ufd1 (GeneID 39254)	1	0.49	-0.4
53	tra (GeneID 39849)	1	0.52	0.63
54	p (GeneID 41025)	1	0.2	0.98
55	CG10132 (GeneID 35239)	1	-0.04	-0.17
56	CG13308 (GeneID 39011)	1	-0.44	-0.14
57	dgo (GeneID 36139)	1	0.41	-0.33

Sorted by “replicate 1, z-score of dpERK with insulin” (high to low): some entries from above.
Gene	reagent	replicate 1, z-score of dpERK with insulin	replicate 2, z-score of dpERK with insulin
ATPCL (GeneID 36760)	1	1.06	0.45
blo (GeneID 35866)	1	-0.16	0.04
CG34338 (GeneID 5740687)	1	-0.16	0.27
